The structures given here were assigned with low confidence; some may be wrong.
Legend:
Experiment in all cases: Substrate specificity: transglycosylation of disaccharide linkers onto wild-type pertuzumab, LC-MS
[1] = molecular target: Endo S (Streptococcus pyogenes serotype M1, UniProt Q99Y92); settings: Endo S 0.4 mg/mL; wild-type pertuzumab 10 mg/mL; linker 1.67 mM; pH 7.4, 25°C; after 6 hours
[2] = molecular target: Endo S2 (Streptococcus pyogenes serotype M49, UniProt T1WGN1); settings: Endo S2 0.4 mg/mL; wild-type pertuzumab 10 mg/mL; linker 1.67 mM; pH 7.4, 25°C; after 6 hours
[3] = tested on: Endo Se2; settings: Endo Se2 0.4 mg/mL; wild-type pertuzumab 10 mg/mL; linker 1.67 mM; pH 7.4, 25°C; after 6 hours
[4] = tested on: Endo Si; settings: Endo Si 0.4 mg/mL; wild-type pertuzumab 10 mg/mL; linker 1.67 mM; pH 7.4, 25°C; after 6 hours

Protein sequences, listed by entry. Tags and fused reporters are not part of them. Residues count along the entry.
UniProt Q99Y92, 37-995 limits assumed: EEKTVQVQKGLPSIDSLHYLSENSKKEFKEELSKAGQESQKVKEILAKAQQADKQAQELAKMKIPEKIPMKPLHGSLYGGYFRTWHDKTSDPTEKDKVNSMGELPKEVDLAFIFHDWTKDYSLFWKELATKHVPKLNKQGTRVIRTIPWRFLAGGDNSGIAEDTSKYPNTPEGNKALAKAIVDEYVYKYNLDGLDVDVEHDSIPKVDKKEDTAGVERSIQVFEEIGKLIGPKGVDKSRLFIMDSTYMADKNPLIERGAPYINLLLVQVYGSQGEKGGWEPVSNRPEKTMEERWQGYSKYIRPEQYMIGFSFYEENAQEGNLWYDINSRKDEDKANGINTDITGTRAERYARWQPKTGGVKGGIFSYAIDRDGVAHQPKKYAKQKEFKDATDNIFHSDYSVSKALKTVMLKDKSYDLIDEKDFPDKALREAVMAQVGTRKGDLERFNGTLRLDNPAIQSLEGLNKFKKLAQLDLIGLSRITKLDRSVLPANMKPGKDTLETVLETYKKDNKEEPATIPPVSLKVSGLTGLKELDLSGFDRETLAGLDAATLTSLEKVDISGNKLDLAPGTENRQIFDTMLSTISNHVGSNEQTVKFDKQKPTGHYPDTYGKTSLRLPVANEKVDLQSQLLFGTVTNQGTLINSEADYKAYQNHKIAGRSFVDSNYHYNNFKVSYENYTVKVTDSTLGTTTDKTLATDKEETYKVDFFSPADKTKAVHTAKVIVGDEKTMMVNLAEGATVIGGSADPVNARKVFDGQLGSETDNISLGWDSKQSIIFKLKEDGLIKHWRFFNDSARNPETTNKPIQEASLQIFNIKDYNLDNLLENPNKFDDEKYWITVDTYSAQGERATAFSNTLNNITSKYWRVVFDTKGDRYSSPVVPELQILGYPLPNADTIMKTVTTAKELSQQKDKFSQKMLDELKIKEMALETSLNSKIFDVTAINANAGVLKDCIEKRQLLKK
UniProt T1WGN1, 38-843 limits assumed: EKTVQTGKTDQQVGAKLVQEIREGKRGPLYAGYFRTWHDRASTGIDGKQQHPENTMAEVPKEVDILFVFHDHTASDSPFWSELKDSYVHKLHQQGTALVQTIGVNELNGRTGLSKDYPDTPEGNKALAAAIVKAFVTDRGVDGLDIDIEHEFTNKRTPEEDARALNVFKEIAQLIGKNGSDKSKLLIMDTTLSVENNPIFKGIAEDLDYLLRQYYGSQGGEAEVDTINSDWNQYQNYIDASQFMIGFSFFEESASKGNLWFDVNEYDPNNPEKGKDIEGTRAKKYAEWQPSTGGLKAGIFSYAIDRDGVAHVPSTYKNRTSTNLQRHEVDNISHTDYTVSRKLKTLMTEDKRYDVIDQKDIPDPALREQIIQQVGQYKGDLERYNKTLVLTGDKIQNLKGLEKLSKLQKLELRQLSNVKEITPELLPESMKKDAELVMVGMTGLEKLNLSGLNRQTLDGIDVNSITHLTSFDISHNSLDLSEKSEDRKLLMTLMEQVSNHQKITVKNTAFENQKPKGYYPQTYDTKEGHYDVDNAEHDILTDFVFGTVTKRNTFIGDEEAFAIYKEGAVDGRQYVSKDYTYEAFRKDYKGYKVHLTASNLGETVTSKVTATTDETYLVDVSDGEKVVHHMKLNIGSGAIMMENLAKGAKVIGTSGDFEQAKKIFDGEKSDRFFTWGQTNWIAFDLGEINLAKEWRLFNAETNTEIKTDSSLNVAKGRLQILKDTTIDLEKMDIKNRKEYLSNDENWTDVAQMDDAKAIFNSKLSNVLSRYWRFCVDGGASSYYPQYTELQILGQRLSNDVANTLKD

Cc1nnc(-c2ccc(OCCOCCOCCOCCOCCOCCOCCOCCOCCC(=O)NC[C@H]3O[C@@H](O[C@H]4[C@H](O)[C@H]5N=C(CN=[N+]=[N-])O[C@H]5O[C@@H]4CO)[C@H](O)[C@@H](O)[C@H]3O)cc2)nn1
Transglycosylation efficiency (%) [1]: 0% | Transglycosylation efficiency (%) [2]: 6.9% | Transglycosylation efficiency (%) [3]: 53.1% | Transglycosylation efficiency (%) [4]: 15.1%

CCC1=N[C@H]2[C@@H](O1)O[C@H](CO)[C@@H](O[C@@H]1O[C@H](CNC(=O)CCCCCCCN[C@@H](CCCCNC(=O)Cc3ccc(-c4nnc(C)nn4)cc3)C(=O)NCCOCCOCCOCCOCCOCCOCCN=[N+]=[N-])[C@H](O)[C@H](O)[C@H]1O)[C@@H]2O
Transglycosylation efficiency (%) [1]: 11.7% | Transglycosylation efficiency (%) [2]: 52.9% | Transglycosylation efficiency (%) [3]: >95% | Transglycosylation efficiency (%) [4]: >95%

Reference: patent publication EP4840868A1, “NOVEL DISACCHARIDE LINKER, PREPARATION METHOD THEREFOR AND USE THEREOF” (dated 2026)
